Laboratory results as given in patent US11266170B2, “Sweetener and flavor compositions, methods of making and methods of use thereof” (EPC Natural Products Co., Ltd., priority 2018, dated 2022).

Assay: HPLC/DAD/MS detection of MRI (Amadori) products (Examples 51, 53, 57, 58)
Type: physicochemical
Details: LC/MS; MRI of amino acid + carbohydrate

Row | SMILES | MRI (Amadori) products Detected in Experiments
1 | O=C(O)C(Cc1ccccc1)NCC(O)=C(O)C(O)CO (stereo not drawn) [Phe/Xyl] | Yes
2 | O=C(O)CC(NCC(O)=C(O)C(O)C(O)CO)C(=O)O (stereo not drawn) [Asp/Glu] | Yes
3 | O=C(O)CC(NCC(O)=C(O)C(O)CO)C(=O)O (stereo not drawn) [Asp/Xyl] | Yes
4 | CCC(C)C(NCC(O)=C(O)C(O)C(O)CO)C(=O)O (stereo not drawn) [Ile/Glu] | Yes
5 | CCC(C)C(NCC(O)=C(O)C(O)CO)C(=O)O (stereo not drawn) [Ile/Xyl] | Yes
6 | O=C(O)C(Cc1ccccc1)NCC(O)=C(O)C(O)C(O)CO (stereo not drawn) [Phe/Glu] | Yes
